PubChem BioAssay AID1224828 – NIAID – 2016
The whole screen tested about 17,000 reagents; this is a random part of them. In the full data, 762 (4.5%) are marked active. 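Active calls include both raised and lowered p65 entry, mostly lowered; wells with fewer than 50 cells lack a z-score.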 The raw values are shown without normalisation. The numbers tell different reagents against one gene apart.

Screen: 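Knock-downs that increase or decrease LPS-induced p65 nuclear translocation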 (primary screen)
Cells: mouse RAW264.7 G9 macrophage reporter cells (GFP-p65, Tnf promoter-mCherry)
Knock-down reagent: siRNA pool against mouse genes, 100 nM
Duration: 2 days siRNA transfection, then 40 min LPS before fixation
Challenge: LPS (Salmonella minnesota R595) at 10 ng/ml
Measurement: 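Microscopy ratio of nuclear to perinuclear-ring GFP-p65 signal, scaled to the plate median; gene score is the average of two replicate robust z-scores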
Scale: p65 translocation robust z-score: higher = more nuclear NF-kappaB p65 after LPS than the plate median; nuclear/cytoplasmic p65 ratio: higher = more nuclear NF-kappaB p65
Call rule: 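Active if robust z is above 3.3 (negative regulators) or below -1.56, the Tlr4 control median (positive regulators); activity score 50 or more; control wells not called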
Meaning of the calls: active = hit (p65 shift raised or lowered); inactive = no clear change

A630012P03Rik | p65 translocation robust z-score = 2.11; nuclear/cytoplasmic p65 ratio, rep 1 = 1.59; nuclear/cytoplasmic p65 ratio, rep 2 = 1.89; low cell count flag = enough cells to score; activity call = inactive
Cep290 | p65 translocation robust z-score = -0.2; nuclear/cytoplasmic p65 ratio, rep 1 = 1.59; nuclear/cytoplasmic p65 ratio, rep 2 = 1.76; low cell count flag = enough cells to score; activity call = inactive
Muc13 | p65 translocation robust z-score = 0.33; nuclear/cytoplasmic p65 ratio, rep 1 = 1.78; nuclear/cytoplasmic p65 ratio, rep 2 = 1.59; low cell count flag = enough cells to score; activity call = inactive
Slc7a1 | p65 translocation robust z-score = -0.07; nuclear/cytoplasmic p65 ratio, rep 1 = 1.4; nuclear/cytoplasmic p65 ratio, rep 2 = 1.24; low cell count flag = enough cells to score; activity call = inactive
Igfbp3 | p65 translocation robust z-score = -0.87; nuclear/cytoplasmic p65 ratio, rep 1 = 1.38; nuclear/cytoplasmic p65 ratio, rep 2 = 1.28; low cell count flag = enough cells to score; activity call = inactive
Taf5 | p65 translocation robust z-score = -0.41; nuclear/cytoplasmic p65 ratio, rep 1 = 1.47; nuclear/cytoplasmic p65 ratio, rep 2 = 1.45; low cell count flag = enough cells to score; activity call = inactive
Tm4sf5 | p65 translocation robust z-score = -1.9; nuclear/cytoplasmic p65 ratio, rep 1 = 1.05; nuclear/cytoplasmic p65 ratio, rep 2 = 1.05; low cell count flag = enough cells to score; activity call = active
Atl3 | p65 translocation robust z-score = -0.32; nuclear/cytoplasmic p65 ratio, rep 1 = 1.28; nuclear/cytoplasmic p65 ratio, rep 2 = 1.46; low cell count flag = enough cells to score; activity call = inactive
Dok3 | p65 translocation robust z-score = 1.07; nuclear/cytoplasmic p65 ratio, rep 1 = 1.78; nuclear/cytoplasmic p65 ratio, rep 2 = 1.83; low cell count flag = enough cells to score; activity call = inactive
Or10a4 | p65 translocation robust z-score = 0.42; nuclear/cytoplasmic p65 ratio, rep 1 = 1.74; nuclear/cytoplasmic p65 ratio, rep 2 = 1.42; low cell count flag = enough cells to score; activity call = inactive
Mafa | p65 translocation robust z-score = 0.52; nuclear/cytoplasmic p65 ratio, rep 1 = 1.78; nuclear/cytoplasmic p65 ratio, rep 2 = 1.64; low cell count flag = enough cells to score; activity call = inactive
Pdcd6ip | p65 translocation robust z-score = -0.53; nuclear/cytoplasmic p65 ratio, rep 1 = 1.4; nuclear/cytoplasmic p65 ratio, rep 2 = 1.32; low cell count flag = enough cells to score; activity call = inactive
Ndufb4 | p65 translocation robust z-score = 0.19; nuclear/cytoplasmic p65 ratio, rep 1 = 1.88; nuclear/cytoplasmic p65 ratio, rep 2 = 1.56; low cell count flag = enough cells to score; activity call = inactive
Or2a54 | p65 translocation robust z-score = 1.05; nuclear/cytoplasmic p65 ratio, rep 1 = 1.58; nuclear/cytoplasmic p65 ratio, rep 2 = 1.21; low cell count flag = enough cells to score; activity call = inactive
Plat | p65 translocation robust z-score = 0.36; nuclear/cytoplasmic p65 ratio, rep 1 = 1.52; nuclear/cytoplasmic p65 ratio, rep 2 = 1.48; low cell count flag = enough cells to score; activity call = inactive
Arsb #1 | p65 translocation robust z-score = -0.1; nuclear/cytoplasmic p65 ratio, rep 1 = 1.59; nuclear/cytoplasmic p65 ratio, rep 2 = 1.61; low cell count flag = enough cells to score; activity call = inactive
Arsb #2 | p65 translocation robust z-score = -0.86; nuclear/cytoplasmic p65 ratio, rep 1 = 1.36; nuclear/cytoplasmic p65 ratio, rep 2 = 1.39; low cell count flag = enough cells to score; activity call = inactive
Ccnb3 | p65 translocation robust z-score = -0.75; nuclear/cytoplasmic p65 ratio, rep 1 = 1.35; nuclear/cytoplasmic p65 ratio, rep 2 = 1.3; low cell count flag = enough cells to score; activity call = inactive
Timm13 | nuclear/cytoplasmic p65 ratio, rep 1 = 1.48; nuclear/cytoplasmic p65 ratio, rep 2 = 1.2; low cell count flag = fewer than 50 cells per well; well left out of scoring; activity call = inactive
A330070K13Rik | nuclear/cytoplasmic p65 ratio, rep 1 = 1.09; nuclear/cytoplasmic p65 ratio, rep 2 = 1.19; low cell count flag = fewer than 50 cells per well; well left out of scoring; activity call = inactive
Tafazzin | p65 translocation robust z-score = -0.5; nuclear/cytoplasmic p65 ratio, rep 1 = 1.51; nuclear/cytoplasmic p65 ratio, rep 2 = 1.39; low cell count flag = enough cells to score; activity call = inactive

2 entries from above, set out differently:
gene knocked down | pool no. | p65 translocation robust z-score | nuclear/cytoplasmic p65 ratio, rep 1 | nuclear/cytoplasmic p65 ratio, rep 2 | low cell count flag | activity call
Or10a4 | 1 | 0.42 | 1.74 | 1.42 | enough cells to score | inactive
Mafa | 1 | 0.52 | 1.78 | 1.64 | enough cells to score | inactive
